Measurements reported in PubChem BioAssay AID504791 (Drosophila RNAi Screening Center, 2011)
In all, the deposit lists about 23,000 reagents; this is a random part of those that have a named target and a result. Of all reagents, 199 (0.86%) were called active. 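Plate-scaled ratios behind the calls are not deposited; printed light signals are raw; many rows marked increased or decreased are still called inactive.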 A plus sign joins genes that one reagent is predicted to hit. Not stated in the record: the direction of the score.

- Test: 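Genes whose knock-down strengthens or weakens small-RNA reporter silencing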 (primary screen)
- Cells: Drosophila S2-derived reporter cells
- Reagents: long dsRNA against Drosophila genes, about 150-250 ng dsRNA per well (siRNA assay); about 80-120 ng (miRNA assay)
- Time to read-out: about 5 days (siRNA assay); about 4 days (miRNA assay)
- Treatment: copper sulfate induction of reporters: 25 µM (siRNA assay); 200 mM stated (miRNA assay), 1-2 days before reading
- Measurement: 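Per-well ratio of Renilla over firefly light, expressed relative to that plate's average ratio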
- Rule for the call: 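First-pass picks had plate-scaled ratios over 1.5 for the siRNA assay, over 1.6 for the miRNA assay, or under 0.6; two distinct dsRNAs had to score alike on retest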

gene knocked down,dsRNA,stable siRNA reporter change,miRNA reporter change,"stable assay Renilla, run 1 (luminescence)","stable assay firefly, run 1 (luminescence)",activity call
PlexA,DRSC17220,,,7911,4.15e5,inactive
CG1299,DRSC08300,,,6570,4.28e5,inactive
fus,DRSC05569,,,6074,4.33e5,inactive
fus,DRSC07107,,,11794,5.14e5,inactive
CG10887,DRSC14277,,,4408,4.83e5,inactive
CG32112,DRSC09815,,,7006,4.21e5,inactive
Rtca,DRSC18517,,,8691,5.42e5,inactive
CG12420,DRSC14514,,,4319,3.25e5,inactive
CG34038,DRSC04039,,,5744,4.54e5,inactive
CG5968,DRSC02916,,,8051,5.21e5,inactive
CG2614,DRSC02711,,,5079,6.12e5,inactive
Gr47b,DRSC05275,,,5911,3.17e5,inactive
Fam92,DRSC02952,,,30237,5.24e5,inactive
borr,DRSC02749,,,5687,5.38e5,inactive
dmrt93B,DRSC15865,,,6656,3.65e5,inactive
Gr61a,DRSC08358,,,4424,3.35e5,inactive
Sox21a,DRSC10819,,,7190,4.00e5,inactive
lms,DRSC06387,,,5355,4.12e5,inactive
ct,DRSC18757,,,4135,2.22e5,inactive
S-Lap1,DRSC10627,,,7044,3.62e5,inactive
Gpxl,DRSC06538,,,5835,3.38e5,inactive
CG8569,DRSC07214,,,7991,3.84e5,inactive
RIC-3,DRSC04243,,,17347,3.70e5,inactive
RIC-3,DRSC04543,,,6362,4.73e5,inactive
key,DRSC04285,,,70543,2.23e6,inactive
Dip-B,DRSC16466,,,7698,4.70e5,inactive
not,DRSC11378,,,7147,3.40e5,inactive
Indy-2 + CG33934,DRSC15685,,,10386,3.16e5,inactive
Indy-2 + CG33934,DRSC15686,reporter ratio lowered past the hit cutoff,,7474,6.12e5,inactive
CG11854,DRSC14409,,,6714,3.69e5,inactive
wkd,DRSC15777,,,6174,3.17e5,inactive
CG8839,DRSC07285,,,7798,3.50e5,inactive
CG30339,DRSC05168,,,5295,3.50e5,inactive
CG7080,DRSC16193,,,9583,2.93e5,inactive
RpS29 + snoRNA:Psi18S-1275,DRSC16433,,,6626,3.42e5,inactive
Arpc3A,DRSC15596,,,7483,4.03e5,inactive
Cyp4c3,DRSC16631,,,6615,3.69e5,inactive
RhoGAP18B,DRSC19763,,,6463,3.63e5,inactive
RhoGAP18B,DRSC20047,,,5671,3.75e5,inactive
RhoGAP18B,DRSC20048,,,6462,3.55e5,inactive
RhoGAP18B,DRSC20049,,,5658,3.59e5,inactive
nero,DRSC15432,,,7535,4.38e5,inactive
CG33124,DRSC00298,,,8598,5.57e5,inactive

10 entries already listed, sorted by “stable assay Renilla, run 1 (luminescence)”, descending.
gene knocked down,dsRNA,stable siRNA reporter change,miRNA reporter change,"stable assay Renilla, run 1 (luminescence)","stable assay firefly, run 1 (luminescence)",activity call
Fam92,DRSC02952,,,30237,5.24e5,inactive
CG5968,DRSC02916,,,8051,5.21e5,inactive
Sox21a,DRSC10819,,,7190,4.00e5,inactive
dmrt93B,DRSC15865,,,6656,3.65e5,inactive
Gr47b,DRSC05275,,,5911,3.17e5,inactive
borr,DRSC02749,,,5687,5.38e5,inactive
lms,DRSC06387,,,5355,4.12e5,inactive
CG2614,DRSC02711,,,5079,6.12e5,inactive
Gr61a,DRSC08358,,,4424,3.35e5,inactive
ct,DRSC18757,,,4135,2.22e5,inactive

Next records follow:
gene knocked down,dsRNA,stable siRNA reporter change,miRNA reporter change,"stable assay Renilla, run 1 (luminescence)","stable assay firefly, run 1 (luminescence)",activity call
GluRIIB,DRSC03335,,,6735,3.38e5,inactive
klu,DRSC11357,,,4963,3.27e5,inactive
CG14591,DRSC04868,,,7187,4.14e5,inactive
CG16888,DRSC02541,,,7099,4.10e5,inactive
CG6656,DRSC16085,,,8487,4.10e5,inactive
bs,DRSC04676,,,3051,2.13e5,inactive
bs,DRSC23068,,,4231,4.19e5,inactive
CG5715,DRSC15860,,,6832,3.46e5,inactive
CG10969,DRSC09811,,,5527,3.90e5,inactive
CG13168,DRSC06295,,,5655,3.02e5,inactive
CG43317,DRSC15000,,,7464,4.31e5,inactive
CG1324,DRSC20496,,,8129,4.71e5,inactive
CG3565,DRSC04389,,,44744,1.59e6,inactive
CG6508,DRSC02963,,,7846,3.32e5,inactive
cher,DRSC16924,,,7482,2.76e5,inactive
CG33108,DRSC21613,,,8704,5.29e5,inactive
CG31556 (retired record),DRSC12122,,,5946,3.40e5,inactive
CG31556 (retired record),DRSC22177,,,8972,4.90e5,inactive
CG14689,DRSC14912,,,6835,3.85e5,inactive
fat-spondin,DRSC07617,,,10163,3.12e5,inactive
Gadd45,DRSC06033,,,5851,2.51e5,inactive
Ssdp,DRSC16211,,,6678,3.51e5,inactive
CG15534,DRSC15070,,,7486,4.99e5,inactive
D19A,DRSC11133,,reporter ratio raised past the hit cutoff,8095,3.76e5,inactive
Arp1,DRSC14118,,,6920,3.74e5,inactive
Saysd1,DRSC14664,,,6211,2.98e5,inactive
Br140,DRSC06755,,,14451,1.34e6,inactive
Or45b,DRSC07488,,,6838,3.51e5,inactive
CG12826,DRSC06175,,,6424,3.56e5,inactive
CG14280,DRSC14761,,,8407,4.03e5,inactive
CG6701,DRSC07007,,,9434,5.83e5,inactive
RpS24,DRSC04414,,,3740,3.53e5,inactive
CG32591,DRSC19063,,,4491,3.39e5,inactive
CG12439,DRSC02168,,,8086,4.09e5,inactive
CG7179,DRSC03020,,,7812,4.35e5,inactive
CG7179,DRSC25007,,reporter ratio raised past the hit cutoff,,,inactive
CR31032,DRSC22457,,,3484,3.66e5,inactive
mthl3,DRSC06997,,,8520,4.04e5,inactive
CG34167,DRSC01525,,,5280,3.98e5,inactive
CG15012,DRSC08465,,,7997,3.52e5,inactive
